Data on 60 compounds can be found in PubChem BioAssay AID2685 (National Center for Advancing Translational Sciences (NCATS), 2010).

The structures appear in SMILES notation. The list shows a part of the results. Shown are side measurements of this screen, not its main read-out; they come without a call. Compounds called inactive in the main read-out are mostly missing here. Words in brackets tell the shape of the fitted curve; partial curves, single points and poor fits give uncertain potencies.

The assay in a line: qHTS Assay for Lipid Storage Modulators in Drosophila S3 Cells.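 For cell number change: cells counted by Cell Tracker Red CMTPX staining in the red channel.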 Particulars: BODIPY lipid droplet fluorescence, 18-24 h; for cell number change: measured here: cell count max response, cells fed with added oleic acid. An outline of the steps: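 Drosophila S3 cells loaded with oleic acid (400 uM, as added) and compounds at several concentrations; lipid droplets imaged by 488-nm laser-scanning cytometry, 500–530 nm intensity and object ratio to cell channel. Percent activity normalized to 20 uM Triacsin C.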
For orientation: qHTS replaces the single test concentration by a dilution series.

Where [1] appears, read: measured here: lipid fluorescence (Fed channel) AC50, cells fed with added oleic acid.
[2] abbreviates: measured here: cell number channel AC50, cells fed with added oleic acid.

On to `COc1c(OC)c2[nH]c(=O)cc3c4ccccc4n(c1=O)c23`, for which the cell number change is -20.8%. In addition, the AC50 under setting [1] is 0.259 µM [falling, full curve, poor fit].
Consider `COc1ccc(C2NC(=O)NC(C)=C2C(=O)OC2CCC(C)CC2)cc1` (stereo not given), for which the cell number change is -44%. Also, the AC50 under setting [2] is 10.3 µM [falling, partial curve].
With `O=C(NC1CCCC1)C(c1ccccc1)N(C(=O)c1ccno1)c1cccnc1` (stereo not given), the cell number change came out at 12.3%. Moreover, the concentration at half-maximal activity (AC50) under setting [1] was 0.00461 µM [rising, full curve, poor fit].
In the case of `Cc1cnc(C(=O)OCC(=O)c2ccc(Br)s2)cn1`, the cell number change was -22.1%.
`Cc1c(C(=O)O)[nH]c2ccc([N+](=O)[O-])cc12`: the cell number change is -38.9%. The AC50 under setting [2] is 0.0164 µM [falling, full curve, poor fit]. Moreover, under setting [1], the half-maximal activity concentration (AC50) was 2.91 µM [falling, partial curve, poor fit].
As for `Cc1nnc(SCC(=O)OC2CC(C)CCC2C(C)C)[nH]c1=O` (stereo not given), the cell number change amounted to 40.1%. Moreover, under setting [2], the concentration at half-maximal activity (AC50) is 23.1 µM [rising, partial curve, poor fit].
For the compound `CCc1ccc(OCc2nnc(NC(=O)c3cccs3)s2)cc1`, the cell number change is -17.2%. Moreover, the AC50 under setting [1] is 2.91 µM [falling, partial curve].
For the compound `COc1cc(/C=N/NC(N)=O)c(Br)cc1OCC(=O)Nc1ccccc1C`, the cell number change turned out to be 1.72%. For the same compound, the AC50 under setting [1] is 0.259 µM [falling, full curve, poor fit].
As for `COc1cc(OC)c(NC(=O)c2ccccc2F)cc1Cl`, the cell number change was 35%. Besides, under setting [2], the AC50 is 0.291 µM [rising, full curve, poor fit]. The AC50 under setting [1] is 0.259 µM [rising, full curve, poor fit].
Consider `CCOc1ccccc1N1CC(C(=O)Nc2cccc(S(=O)(=O)N3CCCCC3)c2)CC1=O` (stereo not given), for which the cell number change is -17.2%. Moreover, the AC50 under setting [2] was 3.26 µM [falling, single point]. Under setting [1], the AC50 is 3.26 µM [falling, single point].
Regarding `COc1ccc2c(c1)c(C(=O)N1CCN(C)CC1)c(C)n2-c1ccccc1`, the cell number change was -2.51%. Further, the AC50 under setting [1] is 29.1 µM [falling, single point].
In the case of `Cc1ccc(CN2CCCN(Cc3cc(C)ccc3C)S2(=O)=O)cc1`, the cell number change was 32.4%. Further, the AC50 under setting [2] is 0.82 µM [rising, full curve, poor fit]. For the same compound, the AC50 under setting [1] was 14.6 µM [rising, partial curve, poor fit].
In the case of `COC(=O)CSc1nnc(-c2cccnc2)o1`, the cell number change is -64.2%. Also, under setting [2], the AC50 is 32.6 µM [falling, single point].
For the compound `Cc1ccc(N(C(=O)CNC(=O)c2ccco2)C(C(=O)NC2CCCC2)c2ccncc2)c(C)c1` (stereo not given), the cell number change was found to be 5.71%.
`O=C(CCC(=O)NC1CCCCC1)NCc1ccc(F)cc1`: the cell number change came to 5.25%. Also, the half-maximal activity concentration (AC50) under setting [1] was 11.6 µM [rising, single point].
For the compound `CC1Sc2ccc(S(=O)(=O)NCCc3ccc(S(N)(=O)=O)cc3)cc2NC1=O` (stereo not given), the AC50 under setting [1] was 0.58 µM [falling, full curve].
In the case of `CC(C)CCCN1CCN=C1N(C)C`, the cell number change stood at 29.6%. For the same compound, the AC50 under setting [1] is 6.51 µM [rising, single point].
For the compound `COCCNC(=O)C(=O)NCC1OCCCN1S(=O)(=O)c1cccs1` (stereo not given), the cell number change is -1.33%. Under setting [1], the AC50 was 2.31 µM [falling, full curve, poor fit].
As for `Cc1cc(C(=O)NNC(=O)c2cccs2)c(C)o1`, the cell number change stood at 13.2%. In addition, the AC50 under setting [1] is 0.184 µM [falling, full curve, poor fit].
Regarding `O=C(CSc1nnc2scc(-c3ccccc3)n12)NCc1ccc2c(c1)OCO2`, the cell number change was found to be 0.742%. The half-maximal activity concentration (AC50) under setting [1] was 2.31 µM [rising, partial curve].
Regarding `CC(=O)c1ccc(NC(=O)CCC(=O)OCC(=O)c2cccc([N+](=O)[O-])c2)cc1`, the cell number change was found to be 15.5%.
For the compound `CC(C)CN1CCC(=O)N(CCO)CC1`, the cell number change was determined as 0.599%.
For the compound `CCOc1cccc(C(=O)Nc2ccc(N3CCN(S(C)(=O)=O)CC3)cc2)c1`, the cell number change is 4.16%. Under setting [2], the AC50 is 6.51 µM [rising, single point]. Also, the AC50 under setting [1] was 6.51 µM [rising, single point].
As to `CCc1ccccc1Nc1nc(N)nc(CSCC(=O)Nc2ccc(C)c(C)c2)n1`, the cell number change stood at 2.8%. Also, the AC50 under setting [1] is 4.61 µM [rising, single point].
Turning to `CC(C)[C@H](NC(=O)OCc1ccccc1)C(=O)OCC(=O)N1CCN(c2ccccc2)CC1`, the cell number change is -11.8%. For the same compound, under setting [1], the AC50 was 3.26 µM [rising, single point].
Consider `O=c1c2ccc(Cl)cc2[nH]c(=S)n1CCCN1CCOCC1`, for which the cell number change was found to be 23%. In addition, the AC50 under setting [1] was 0.461 µM [rising, single point].
Turning to `COC(=O)C1C(=O)C=C(N2CCOCC2)CC1(C)C` (stereo not given), the cell number change was -0.195%. For the same compound, under setting [1], the AC50 was 0.461 µM [falling, single point].
For the compound `COc1ccc(-c2oc3ccc(-c4cc(OC)c(OC)c(OC)c4)cc3c2C(=O)c2ccc(OC)nc2)cc1`, the cell number change was found to be 16.5%. For the same compound, the AC50 under setting [1] was 29.1 µM [rising, single point].
As to `CC(C)N=C(NS(=O)(=O)c1cccs1)c1ccccc1`, the cell number change is 3.14%. For the same compound, the concentration at half-maximal activity (AC50) under setting [1] is 3.66 µM [rising, partial curve].
Take `CC(C)c1ccc(S(=O)(=O)Nc2ccc(-n3cnnn3)cc2)cc1`: the cell number change is -30.6%. Also, the half-maximal activity concentration (AC50) under setting [2] is 2.59 µM [falling, full curve].
On to `COc1ccccc1NC(=O)COC(=O)c1cc(C)nc2ccccc12`, for which the cell number change is 23.9%. In addition, the AC50 under setting [2] is 0.0058 µM [rising, full curve, poor fit]. For the same compound, the AC50 under setting [1] was 0.0058 µM [rising, full curve, poor fit].
Consider `O=C(COC(=O)/C=C/c1nc2ccccc2s1)Nc1cccc(Cl)c1Cl`, for which the cell number change is -3.6%. The AC50 under setting [2] is 0.259 µM [falling, full curve, poor fit].
For the compound `CCOC(=O)N1CCN(C(=O)CN(C2CCCCC2)S(=O)(=O)c2ccc(C)cc2)CC1`, the half-maximal activity concentration (AC50) under setting [1] was 0.13 µM [falling, full curve, poor fit].
For the compound `CCCc1cc(=O)[nH]c(Nc2ccc(O)cc2)n1`, the cell number change worked out at 4.5%. Also, under setting [1], the AC50 was 10.3 µM [falling, partial curve].
Consider `COc1ccccc1/C=N/N1C(=O)c2cccc3cccc(c23)C1=O`, for which the cell number change is 13%.
In the case of `O=c1[nH]c(C2CCN(S(=O)(=O)c3ccccc3)CC2)nc2c1nnn2Cc1ccc2c(c1)OCCO2`, the cell number change is -23.4%. Moreover, the AC50 under setting [2] is 2.31 µM [falling, partial curve].
On to `O=C(COC(=O)C12CC3CC(CC(O)(C3)C1)C2)Nc1ccc(Cl)cc1F`, for which the cell number change came out at 6.04%.
As to `Clc1ccc2nncn2n1`, the cell number change is -32.3%. Further, the AC50 under setting [2] is 0.103 µM [falling, full curve, poor fit]. Under setting [1], the AC50 was 0.116 µM [falling, full curve, poor fit].
As for `CCOC(=O)CNC(=O)c1cn(CC)c(=O)c2cc(OC)c(OC)cc12`, the cell number change stood at 25.7%.
For the compound `O=C(COc1ccc(S(=O)(=O)N2CCOCC2)cc1)Nc1ccccc1Cl`, the AC50 under setting [1] is 29.1 µM [falling, single point].
With `COc1cccc(Cn2cccc(NC(=O)Nc3ccc(C#N)cc3)c2=O)c1`, the cell number change turned out to be 2.84%. Besides, the AC50 under setting [2] was 0.82 µM [falling, single point].
Consider `Cc1cccc(NC(=O)CCCN2C(=O)C(c3ccccc3)Oc3cccnc32)c1C` (stereo not given), for which the cell number change stood at 14.6%. Further, under setting [2], the AC50 was 6.51 µM [rising, single point]. For the same compound, under setting [1], the AC50 was 6.51 µM [rising, single point].
Turning to `COC(=O)C1=C(NC(=O)c2ccccc2C)CCS1`, the cell number change amounted to 24.8%. For the same compound, the AC50 under setting [1] was 6.51 µM [rising, single point].
Consider `Cc1ccc(NC(=S)NC(NC(=O)Cc2cccc3ccccc23)C(Cl)(Cl)Cl)cc1` (stereo not given), for which the AC50 is, setting by setting: under setting [2], 0.82 µM [rising, full curve]; under setting [1], 14.6 µM [falling, partial curve].
Consider `O=C(OCc1ccccc1)/C(=C/c1ccc(Cl)cc1)NC(=O)c1ccccc1Cl`, for which the cell number change was -32.9%.
For `Cc1cccn2c(=O)c3cc(S(=O)(=O)c4ccccc4)c(=N)n(Cc4cccnc4)c3nc12`, the cell number change is -21.8%. The AC50 under setting [1] was 0.0651 µM [rising, partial curve, poor fit].
`O=C(NCc1ccc2c(c1)OCO2)c1cc2c(s1)CS(=O)(=O)C2`: the cell number change is -4.56%. In addition, the AC50 under setting [1] was 3.26 µM [rising, full curve, poor fit].
As for `COC(=O)c1ccc(CNC(=O)CSc2nnc(COc3ccccc3)n2C)o1`, the cell number change was -14.5%. The AC50 under setting [1] was 7.31 µM [falling, partial curve, poor fit].
Consider `CCN1C(=O)[C@H]2[C@@H](c3ccc(C)cc3)N3C(=O)N(c4ccc(OC)cc4)C(=O)[C@@]3(Cc3ccc(Cl)cc3)[C@H]2C1=O`, for which the cell number change was -3.24%. The half-maximal activity concentration (AC50) under setting [1] was 0.13 µM [falling, full curve, poor fit].
As for `Cc1onc(-c2c(Cl)cccc2Cl)c1C(=O)c1c[nH]c(C(=O)NCC2CCCO2)c1` (stereo not given), the cell number change was 71.8%. Moreover, under setting [2], the half-maximal activity concentration (AC50) is 14.6 µM [rising, single point].
With `O=C(CSc1cn(Cc2ccccc2)c2ccccc12)NCc1ccc(F)cc1`, the cell number change was -3.43%. Besides, the AC50 under setting [1] is 4.11 µM [falling, full curve].
`COc1cccc(CNC(=O)c2c(C)nn(-c3ccccc3)c2C)c1`: the cell number change is 8.4%.
As for `O=c1cnc(-c2ccc(Cl)cc2)cn1O`, the cell number change was -10%. Also, the AC50 under setting [1] is 0.411 µM [falling, full curve, poor fit].
`COc1ccc(NC(=O)C2CCC(=O)N2)cc1` (stereo not given): the cell number change was -2.93%. For the same compound, the AC50 under setting [1] is 0.731 µM [falling, full curve].
In the case of `CCOC(=O)C1=C(C)Nc2nc(SCc3cccnc3)nn2C1c1ccc(OC)cc1` (stereo not given), the cell number change was 14.6%. Also, the AC50 under setting [1] is 0.146 µM [rising, full curve, poor fit].
Consider `CS(=O)(=O)Nc1ccccc1C(=O)N1CCN(c2ccccc2)CC1`, for which the cell number change was 82.1%. Besides, the AC50 under setting [2] is 16.4 µM [rising, single point].
With `CC(c1cccs1)N(Cc1ccco1)C(=O)Nc1ccc(Cl)c(Cl)c1` (stereo not given), the cell number change is -0.283%. The AC50 under setting [1] is 18.4 µM [rising, single point].
For the compound `CCc1nc2ccccc2c(C(=O)OC2CCOC2=O)c1C` (stereo not given), the cell number change is -23.8%. Moreover, the AC50 under setting [1] was 14.6 µM [falling, partial curve, poor fit].
As for `Cc1ccc(C)c(NC(=O)c2cnn3ccccc23)c1`, the cell number change was 6.36%. Further, the AC50 under setting [1] was 0.146 µM [rising, full curve, poor fit].
`CCN(CC)S(=O)(=O)c1ccc(N2CCOCC2)c(NC(=O)c2ccc(C#N)cc2)c1`: the AC50 under setting [2] is 0.116 µM [rising, single point].

For orientation: AC50 means the midpoint of the concentration-response curve, whichever way the signal moves. Read a low AC50 as activity at low concentration.
